Results from patent US20170334988A1 (WALTER AND ELIZA HALL INSTITUTE OF MEDICAL RESEARCH, published 2017).
No constants are given. Whether binding was seen depends on the method and setting. Some results given as binding are weak or reduced against the parent protein; the word gives no strength. Ends that are not written are not given here. * marks the point of attachment. Biotin = O=C1N[C@H]2[C@H](CS[C@H]2CCCCC(=O)*)N1

Experiments:
Test in all cases: immunoprecipitation from membranes incubated with or without tBid, western blot
A53C (human) = target: T1, A53C (human) (UniProt Q16611)
T1 sequence (looked up): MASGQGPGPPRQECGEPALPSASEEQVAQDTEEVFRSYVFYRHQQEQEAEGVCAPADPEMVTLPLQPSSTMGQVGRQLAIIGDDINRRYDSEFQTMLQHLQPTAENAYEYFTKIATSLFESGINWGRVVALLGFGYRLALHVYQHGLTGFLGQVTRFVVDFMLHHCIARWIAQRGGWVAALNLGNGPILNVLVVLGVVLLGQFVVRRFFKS

A56C (human) = target: T2, A56C (human) (UniProt Q16611)
T2 sequence (looked up): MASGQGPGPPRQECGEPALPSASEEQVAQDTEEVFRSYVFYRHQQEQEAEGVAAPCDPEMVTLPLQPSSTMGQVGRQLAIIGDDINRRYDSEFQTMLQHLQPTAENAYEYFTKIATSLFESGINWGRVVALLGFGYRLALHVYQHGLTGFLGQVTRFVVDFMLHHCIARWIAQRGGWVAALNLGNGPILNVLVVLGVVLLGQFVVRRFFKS

V52C (human) = target: T3, V52C (human) (UniProt Q16611)
T3 sequence (looked up): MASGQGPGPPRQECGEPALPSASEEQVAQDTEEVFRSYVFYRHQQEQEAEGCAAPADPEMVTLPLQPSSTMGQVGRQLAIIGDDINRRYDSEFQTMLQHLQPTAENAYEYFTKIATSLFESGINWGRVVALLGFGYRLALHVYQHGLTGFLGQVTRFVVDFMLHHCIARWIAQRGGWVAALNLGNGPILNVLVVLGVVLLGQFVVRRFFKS

A54C (human) = target: T4, A54C (human) (UniProt Q16611)
T4 sequence (looked up): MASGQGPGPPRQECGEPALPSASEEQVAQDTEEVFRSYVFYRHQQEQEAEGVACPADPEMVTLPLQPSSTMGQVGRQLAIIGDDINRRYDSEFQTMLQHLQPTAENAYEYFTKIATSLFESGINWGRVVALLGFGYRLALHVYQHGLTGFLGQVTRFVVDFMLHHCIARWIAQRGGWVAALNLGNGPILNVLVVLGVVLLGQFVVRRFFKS

binding (A53C (human)): binds
binding (A56C (human)): binds
binding (V52C (human)): binds
binding (A54C (human)): binds
B1: 26/05-7D10-17-13 antibody (antibody, V domains shown)
VH: EVELVESGGDLVQPGRSLKLSCAASGFTFSNLAMAWVRQTPTKGLEWVASISPAGITTYYRDSVKGRFTISRDNARNTQYLQMDSLRSEDTATYYCARHTGKSSFFDYWGQGVMVTVSS
VL: DVQMTQSPSYLAASPGESVSISCKATENINTYLAWYQAKPGKTTKLLLYSGSTLQSGTPSRFSGSGSGTDFTLTISSLEPEDFAVYYCQQHNEYPLTFGSGTKLEIK
notes: Rat IgG monoclonal antibody from hybridoma SW1 (ECACC 15041601), WEHI monoclonal antibody facility; also called 26/05-7D10-17-13 MAb; 26/05-7D 10-17-13 anti-Bak antibody
